From PubChem BioAssay AID445 (National Center for Advancing Translational Sciences (NCATS), 2006)
The other results are listed elsewhere or left out. These are further read-outs of the screen, such as a control signal, another cell line or another target. No call is given for them. The list favours compounds with an active or inconclusive main result. Potencies come from curve fits of mixed quality, noted in brackets.

experiment: IkB Signaling; settings: ABC-DLBCL IkBa-CBG/CBR dual luciferase ratio (green luciferase fused to IkBa over red control in OCI-Ly3 lymphoma cells), 4 h; measured here: control luc red channel unless noted
Outline: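 Curves were fitted separately to fusion (green), unfused (red) and ratio luminescence, then classed by r2, magnitude and activity. Cells: OCI-Ly3, 4 h compound plus doxycycline at 37C; 10 uM MG-132 defined full response.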

Row | Structure (SMILES) | AC50
1 | Cc1ccc(Cl)cc1-n1ncc2c(N3CCN(Cc4ccccc4)CC3)ncnc21 | 7.94 µM [falling, partial curve]
2 | COCCNc1ncnc2ccc(-c3cccnc3)cc12 | 3.16 µM [rising, partial curve]
3 | COc1ccc(NC(=O)CSc2nc3c(oc4ccccc43)c(=O)n2Cc2ccco2)cc1Cl | 20 µM [rising, partial curve] [measured here: IkB-luc green channel]
4 | COc1ccc(CNC(=O)CN2C(=O)CSc3ccc(S(=O)(=O)N4CCC(C)CC4)cc32)cc1 | 15.8 µM [falling, single point]
5 | Cc1ccc(CCNc2ncnc3onc(-c4ccc(Cl)cc4)c23)cc1 | 39.8 µM [falling, single point]
6 | COc1cc(S(=O)(=O)NCCc2c(C)[nH]c3ccccc23)c(C)cc1C | 39.8 µM [falling, partial curve]
7 | CN(C)S(=O)(=O)c1ccc(C(=O)NCCSc2c(-c3ccccc3)[nH]c3ccccc23)cc1 | 3.16 µM [falling, full curve]
8 | O=[N+]([O-])c1cccc2c(Br)[nH]nc12 | 15.8 µM [rising, partial curve, poor fit]
9 | Fc1cccc(-c2nnn3c2nc(NC2CCCCC2)c2ccccc23)c1 | 0.02 µM [falling, full curve]
10 | COc1ccc(NC(=O)C2=C(C)Nc3ncnn3C2c2cccn2C)cc1 (stereo not given) | 0.794 µM [falling, full curve, poor fit]
11 | Cc1cccc(-n2c(CNC(=O)c3cccc(F)c3)nnc2SCC(=O)Nc2ccccc2F)c1 | 25.1 µM [falling, partial curve]
12 | CC(C)(C)C1CCc2oc3ccc(NS(=O)(=O)c4ccc(C(=O)O)cc4)cc3c2C1 (stereo not given) | 12.6 µM [falling, partial curve]
13 | COc1ccc(CCNc2ncnc3c2cnn3-c2cc(Cl)ccc2C)cc1 | 20 µM [falling, partial curve]
14 | Cc1ccc(NC(=O)c2cc(S(=O)(=O)NCCc3ccc(Cl)cc3)ccc2F)cc1 | 25.1 µM [falling, partial curve]
15 | CC1CCCCN1C(=O)c1cc(-c2ccc(Br)cc2)on1 (stereo not given) | 15.8 µM [falling, partial curve, poor fit]
16 | CCOC(=O)CSc1nc2c(sc3ccccc32)c(=O)n1CCO | 39.8 µM [falling, single point]
17 | COc1cc(OC)cc(C(=O)Nc2ncc3c(n2)CC(C)CC3=O)c1 (stereo not given) | 5.01 µM [falling, partial curve]
18 | Cc1csc2nc(COc3cccc(NC(=O)c4ccccc4F)c3)cc(=O)n12 | 1 µM [rising, partial curve]
19 | Cc1nn(CC(=O)N2CCN(c3ccc(Cl)cc3)CC2)c(=O)c2cccn12 | 15.8 µM [falling, partial curve]
20 | Cc1ccc2c(=O)cc(C(=O)Nc3ccc(S(=O)(=O)Nc4ncccn4)cc3)oc2c1C | 15.8 µM [falling, partial curve]

Structures above that contain bromine (2):
Row | Structure (SMILES) | AC50
8 | O=[N+]([O-])c1cccc2c(Br)[nH]nc12 | 15.8 µM [rising, partial curve, poor fit]
15 | CC1CCCCN1C(=O)c1cc(-c2ccc(Br)cc2)on1 (stereo not given) | 15.8 µM [falling, partial curve, poor fit]

(further entries)

Row | Structure (SMILES) | AC50
21 | O=C(CSc1nc2c([nH]c3ccccc32)c(=O)n1-c1ccc(Cl)cc1)c1ccccc1 | 3.16 µM [rising, partial curve]
22 | COc1ccc(NCc2cccn2-c2nnc(N3CCCCC3)s2)cc1OC | 39.8 µM [falling, single point]
23 | CCOc1ccc(NC(=O)c2c(NC(=O)Cc3ccccc3)sc3c2CCCCC3)cc1 | 3.98 µM [falling, full curve, poor fit]
24 | Cc1ccc(NC(=O)CSc2cn(CC(=O)N3CCCC3)c3ccccc23)cc1Cl | 10 µM [falling, partial curve]
25 | COc1cccc(CNC(=O)Cn2nc(-c3ccc(Cl)cc3)ccc2=O)c1 | 12.6 µM [falling, partial curve]
26 | COc1ccccc1-c1cc(C(=O)Nc2c(F)cc(F)cc2Br)no1 | 0.00251 µM [falling, full curve]
27 | COc1ccc2c(c1)c(=O)c(S(=O)(=O)c1ccccc1)cn2CC(=O)Nc1ccc(C)c(Cl)c1 | 7.94 µM [falling, partial curve]
28 | COc1ccc(-n2cc(C(=O)NCCc3cc(OC)ccc3OC)c3ccccc3c2=O)cc1 | 25.1 µM [falling, single point]
29 | CC1=C(C(=O)Nc2ccc(C)cc2C)C(c2cccs2)n2nc(SCc3cccc(C)c3)nc2N1 (stereo not given) | 1.58 µM [falling, full curve]
30 | CCCc1nn2c(=O)cc(COC(=O)c3ccccc3NC(=O)COc3ccccc3)nc2s1 | 15.8 µM [falling, partial curve]
31 | CCOC(=O)N1CCc2c(sc3c2C(=O)NC(c2cc(OC)c(OC)c(OC)c2)N3)C1 (stereo not given) | 20 µM [falling, single point]
32 | COc1ccccc1NC(=O)c1c(NCc2ccc(C)o2)sc2c1CCCCC2 | 15.8 µM [falling, partial curve]
33 | Cc1ccc(-c2nnc(SCC(=O)Nc3ccccc3F)o2)cc1 | 0.00794 µM [falling, full curve]
34 | COc1ccc(-c2cc(C(F)(F)F)n3nc(-c4ccccc4)cc3n2)cc1OC | 39.8 µM [falling, single point]
35 | CCc1ccc(NC(=O)Cn2c(=O)n(CCC(C)C)c(=O)c3cccnc32)cc1 | 3.98 µM [rising, single point]
36 | CCOC(=O)C1CCN(Cc2nc3ccccc3c(=O)n2-c2ccc(OCC)cc2)CC1 | 12.6 µM [falling, partial curve]
37 | Cc1cc(Cl)ccc1OCCCC(=O)Nc1cccnc1 | 31.6 µM [falling, single point]
38 | CCCCSc1nnc2n(-c3ccc(OC)cc3)c(=O)c3c4c(sc3n12)COC(C(C)C)C4 (stereo not given) | 7.94 µM [falling, full curve]
39 | COc1cc(CN2CCN(S(=O)(=O)c3ccc(NC(C)=O)cc3)CC2)cc(OC)c1OC | 1.58 µM [rising, partial curve]
40 | O=C1N(Cc2ccccc2Cl)c2ccccc2C1(O)c1c[nH]c2ccccc12 (stereo not given) | 25.1 µM [falling, single point]
